Results reported in PubChem BioAssay AID2685 (National Center for Advancing Translational Sciences (NCATS), 2010).
Some of the results follow. Further columns of the screen follow, without active or inactive calls. The list favours compounds with an active or inconclusive main result. Words in brackets tell the shape of the fitted curve; partial curves, single points and poor fits give uncertain potencies.

Test: qHTS Assay for Lipid Storage Modulators in Drosophila S3 Cells;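 as to cell number change: cells counted by Cell Tracker Red CMTPX staining in the red channel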
Details: BODIPY lipid droplet fluorescence, 18-24 h; for cell number change: measured here: cell count max response, cells fed with added oleic acid
Procedure, shortened: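 Drosophila S3 cells loaded with oleic acid (400 uM, as added) and compounds at several concentrations; lipid droplets imaged by 488-nm laser-scanning cytometry, 500–530 nm intensity and object ratio to cell channel. Percent activity normalized to 20 uM Triacsin C.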

[1] = measured here: cell number channel AC50, cells fed with added oleic acid
[2] = measured here: lipid fluorescence (Fed channel) AC50, cells fed with added oleic acid

With `CCOC(=O)CSc1nnc(C)c(=O)[nH]1` the cell number change was -246%, the AC50 [1] was 25.9 µM [falling, partial curve] and the AC50 [2] was 23.1 µM [falling, partial curve].

For `Cc1cccc(CSCCNC(=O)CN2C(=O)c3ccccc3S2(=O)=O)c1`, the cell number change was 6.58% and the AC50 [2] was 1.78 µM [falling, partial curve].

For `Cc1cccc(C)c1OCC(=O)Nc1cccc(S(=O)(=O)N2CCCC2)c1`, the cell number change was 32% and the AC50 [1] was 2.59 µM [rising, full curve, poor fit].

For `O=C(COc1ccc(S(=O)(=O)N2CCCC2)cc1Cl)Nc1ccc2c(c1)OCO2`, the cell number change was -0.539%.

For `Cc1cc(C(=O)CSc2nc3ccccc3c(=O)n2C)c(C)n1CC1CCCO1` (stereo not given), the cell number change was -55.3%, the AC50 [1] was 0.92 µM [falling, full curve] and the AC50 [2] was 1.84 µM [falling, full curve].

In the case of `CCOC(=O)C1=C(C)NC(=O)NC1c1cccc(O)c1` (stereo not given), the AC50 [2] is reported as 2.91 µM [falling, single point].

In the case of `CC1=CN2C(=N)/C(=C/c3ccco3)C(=O)N=C2S1`, the cell number change is reported as 6.79% and the AC50 [2] is reported as 18.4 µM [rising, single point].

For `CCOC(=O)C1=C(c2ccc(OC)cc2)C(=O)c2ccccc2C1=O`, the cell number change was -47.2%, the AC50 [1] was 13 µM [falling, partial curve] and the AC50 [2] was 5.17 µM [falling, full curve, poor fit].

For `CN(C(=O)COc1ccc(Cl)cc1Cl)c1nnc(C23CC4CC(CC(C4)C2)C3)s1`, the cell number change was 0.576% and the AC50 [2] was 2.91 µM [rising, single point].

For `COc1ccc(OC)c(CCNC(=O)C(C)n2nc(C)c3c(C)n(-c4ccc(C)cc4)nc3c2=O)c1` (stereo not given), the cell number change was -24.4% and the AC50 [2] was 29.1 µM [falling, single point].

For `COc1ccccc1CNc1ncnc2nc[nH]c12`, the cell number change was 0.711% and the AC50 [2] was 2.59 µM [rising, partial curve].

In the case of `CCSC1=NCN(CCCC(=O)O)CN1`, the cell number change is reported as -197% and the AC50 [2] is reported as 6.51 µM [rising, single point].

For `c1coc(-c2nn3c(-c4ccco4)nnc3s2)c1`, the cell number change was -19.5% and the AC50 [2] was 0.00517 µM [rising, full curve].

For `CCn1c(=O)[nH]c2cc(C(=O)Nc3cc(C)cc(C)c3)ccc2c1=O`, the cell number change was -9.63% and the AC50 [2] was 16.4 µM [falling, single point].

For `COCCCn1c(C(C)C)nc2oc3cc(OC)ccc3c(=O)c2c1=O`, the cell number change was 1.81% and the AC50 [2] was 5.17 µM [rising, single point].

With `CN(C(=O)c1ccc2c(c1)CCO2)C(C)(C)C` the cell number change was -26% and the AC50 [1] was 3.26 µM [falling, full curve, poor fit].

In the case of `CC1(c2nnc(-c3ccc(F)cc3)o2)CC(c2c(Cl)cccc2Cl)=NO1` (stereo not given), the cell number change is reported as 20.3% and the AC50 [2] is reported as 2.06 µM [rising, full curve].

`CCCCCC(=O)Nc1c(-c2ccc(OC)cc2)c(=O)c2ccccc2n1C` gave a cell number change of 38.8%.

With `CCCNC(=O)COC(=O)c1ccccc1OCc1ccc(Cl)cc1` the cell number change was 106% and the AC50 [1] was 18.4 µM [rising, single point].

In the case of `COc1ccc(-c2[nH]ncc2/C=N\NC(=O)c2ccc(C(C)(C)C)cc2)cc1OC`, the cell number change is reported as -33.3%, the AC50 [1] is reported as 29.1 µM [falling, single point] and the AC50 [2] is reported as 14.6 µM [rising, partial curve].

In the case of `CCOC(=O)c1c(N)sc2c1CCSC2`, the cell number change is reported as 116% and the AC50 [1] is reported as 7.31 µM [rising, partial curve].

For `CC(=O)Nc1ccc2nc(NC(=O)CCc3ccccc3)sc2c1`, the cell number change was -23.8% and the AC50 [2] was 0.00517 µM [falling, full curve, poor fit].

In the case of `COc1ccc(C(=O)Nc2cc(C(=O)NCCc3ccccc3)ccc2Cl)cc1`, the cell number change is reported as 40.1%, the AC50 [1] is reported as 8.2 µM [rising, partial curve, poor fit] and the AC50 [2] is reported as 2.31 µM [rising, partial curve].

With `O=C(CSc1ncc(C(F)(F)F)cc1Cl)NCC1CCCO1` (stereo not given) the cell number change was 9.79% and the AC50 [2] was 6.51 µM [rising, single point].
